# The whole screen tested about 31,000 sequences, of which about 1,400 (4.5%) were called active.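 How the source made its calls: active means median seed-adjusted z-score above 1 or below -1; inactive means the rest.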 Some of the results follow.
# Experiment: Novel Modifiers of Survival Motor Neuron (SMN) Protein: Gene Identification via Genome-wide siRNA Screen;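 further: luminescence tracks full-length SMN protein made from the SMN2 reporter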
# Conditions: HEK293T SMN2-luciferase reporter, siRNA knockdown, 72 h; actives lie on both sides
# Procedure, shortened: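 HEK293T cells stably expressing an SMN2 splicing/cDNA-luciferase reporter were reverse-transfected with a druggable-genome siRNA library and read by luminescence at 72 hours; hits defined by MAD score above 1.0 or below -1.0.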
row,Sequence,median seed-adjusted z-score
1,CGAGAAUUACGUUCCUACATT against RND3,inactive: -0.132
2,GGAUCAAGAGAAAUAUGGATT against ARHGAP12,inactive: 0.525
3,GGCUUAUGGAGGACCCUAUTT against NCOR1,inactive: 0.0767
4,CCCAUAAUGUUGCUAGACUTT against ABCA13,inactive: 0.238
5,GACAGAAGAUUCAAUAAGATT against CLNS1A,inactive: 0.232
6,CAACAACACCUGUUGCUUUTT against RGS17,inactive: -0.627
7,GAGUCCAACUGUCACCGGATT against HGFAC,inactive: 0.021
8,CCAAGCCUGCUUAUAGUAATT against GLRA2,inactive: -0.927
9,GGCGAUAGAUGGUAAUGUATT against ZEB1,inactive: -0.163
10,CAGUCAAGGUGAUCAACCATT against USP10,inactive: 0.182
11,CCUCAUUGCAUACUACAAATT against BAZ1B,inactive: 0.00593
12,CUACUGAGAUUAAACGGGATT against GULP1,inactive: -0.0337
13,CUUCGAGUGUGACAUCUGUTT against ZNF581,inactive: 0.486
14,CCUCAACUCUAAAUACUCATT against ZNF716,inactive: 0
15,GGAGUACAAUGUUCGUGUATT against CSNK2A2,inactive: -0.155
16,CAAUUGCUGUAGAUAGGUUTT against NPFFR2,inactive: 0.0554
17,GGCGAAAUCGGACAAUUGATT against NDUFS2,inactive: -0.388
18,GAACUAAGCACUACUCUAATT against DRP2,inactive: -0.0555
19,AGGUGAACAUGAUUAAAGATT against BTF3L4,inactive: 0.143
20,GGCAAGUCUAAUUCUAUUATT against RGS12,inactive: 0.404
21,GGGAUAAAAGAAUACUUCATT against MORF4,inactive: 0.0121
22,GCAUUAGGAAGAAGCCCAATT against SLC16A3,inactive: -0.353
23,GGAAAUCAUUCGCAACAAATT against LRP4,inactive: -0.00798
24,GGUCCCGGUUUAUAUCUAUTT against HDAC8,inactive: 0.835
25,GCAACAAGUUCAUAGCCUATT against VPS11,inactive: 0
26,GGCUAGUACGUGAAGAGUUTT against PKD2,inactive: 0.219
27,GAUCUACCCUGCUCACGAUTT against ETHE1,inactive: 0
28,GGUGGAACUCUUCAACUUUTT against PHOSPHO2,inactive: -0.247
29,CUGCAUUUGCUACACCCUUTT against COX7C,inactive: -0.461

# As a short view, part of the list above:
row,Sequence,median seed-adjusted z-score
9,GGCGAUAGAUGGUAAUGUATT against ZEB1,inactive: -0.163
10,CAGUCAAGGUGAUCAACCATT against USP10,inactive: 0.182
